PubChem BioAssay AID1224830, NIAID – 2016
Shown is one part, drawn at random, of about 18,000 reagents. About 2,900 of all reagents (16%) were called active. 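Calls are made per well; low scores hint the gene aids the LPS response, high scores that it dampens it.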 Unmarked entries are inactive. Repeated entries: four replicate wells of each siRNA pool.

Screen: 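Regulators of TLR4 signalling towards TNF-alpha in macrophage-like cells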 (primary screen)
Cells: human THP-1 monocytic leukaemia cells, TNF dual-luciferase reporter clone, PMA-differentiated to macrophage-like cells
Reagent: siRNA pool against human genes, 50 nM
Timing: LPS for 4 h, given about 3 days after siRNA transfection
Treatment: bacterial LPS (TLR4 ligand), 10 ng/ml
Detection: 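Ratio of firefly to renilla light, scaled to the plate median and expressed as a robust z-score per replicate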
Scale: TNF reporter robust z-score: higher = stronger TNF reporter response to LPS
Hit rule: 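Each well counts as active if its z-score is over 2.8 or under -1.5; controls are left without a call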

MMS22L: TNF reporter robust z-score = 0.27
MMS22L: TNF reporter robust z-score = 0.89
MMS22L: TNF reporter robust z-score = 0.33
MMS22L: TNF reporter robust z-score = 1.23
SLC2A4RG: TNF reporter robust z-score = -1.12
SLC2A4RG: TNF reporter robust z-score = -0.22
SLC2A4RG: TNF reporter robust z-score = -0.65
SLC2A4RG: TNF reporter robust z-score = -0.21
LHX5: TNF reporter robust z-score = -1.28
LHX5: TNF reporter robust z-score = -0.76
LHX5: TNF reporter robust z-score = -1.02
LHX5: TNF reporter robust z-score = -1.21
DNAJC9: TNF reporter robust z-score = 3.27 (active)
DNAJC9: TNF reporter robust z-score = 2.18
DNAJC9: TNF reporter robust z-score = 3.49 (active)
DNAJC9: TNF reporter robust z-score = 0.28
AREG: TNF reporter robust z-score = -0.74
AREG: TNF reporter robust z-score = -0.5
AREG: TNF reporter robust z-score = -0.61
AREG: TNF reporter robust z-score = -0.19

Reagents listed above called active, once more:
DNAJC9: TNF reporter robust z-score = 3.27 (active)
DNAJC9: TNF reporter robust z-score = 3.49 (active)
